Measurements as given in article PMC4575479, “Ascaris lumbricoides β carbonic anhydrase: a potential target enzyme for treatment of ascariasis” (Parasites & Vectors, 2015).

Sequences of proteins named here, by UniProt entry; tags and fusion partners are left off. Residues count along the entry.
UniProt F1LE18, 1-259: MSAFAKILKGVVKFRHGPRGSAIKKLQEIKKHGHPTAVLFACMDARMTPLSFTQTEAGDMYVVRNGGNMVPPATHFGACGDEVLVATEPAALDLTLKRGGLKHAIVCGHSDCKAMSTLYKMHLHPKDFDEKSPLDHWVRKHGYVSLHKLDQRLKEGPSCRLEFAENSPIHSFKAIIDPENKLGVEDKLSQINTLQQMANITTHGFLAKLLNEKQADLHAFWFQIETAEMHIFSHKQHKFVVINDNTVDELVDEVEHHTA

Target: Ascaris lumbricoides β carbonic anhydrase (AlBCA) (Ascaris suum, UniProt F1LE18)
Assay: biochemical

Ki: 84.1 ± 2.9 nM
Structure (SMILES): CC(=O)Nc1nnc(S(N)(=O)=O)s1 [AAZ, 5-acetamido-1,3,4-thiadiazole-2-sulfonamide]
